Measured values taken from article PMC7489044.
Results are given in words; binding and its absence hold for the method and conditions named. In cells and extracts the contact can be indirect. Some binding calls cover weakened binding; strength is not graded here.

Amino acid sequences for entries named in this document (tags omitted). Residues count along the entry.
UniProt O00254, residues 39-374: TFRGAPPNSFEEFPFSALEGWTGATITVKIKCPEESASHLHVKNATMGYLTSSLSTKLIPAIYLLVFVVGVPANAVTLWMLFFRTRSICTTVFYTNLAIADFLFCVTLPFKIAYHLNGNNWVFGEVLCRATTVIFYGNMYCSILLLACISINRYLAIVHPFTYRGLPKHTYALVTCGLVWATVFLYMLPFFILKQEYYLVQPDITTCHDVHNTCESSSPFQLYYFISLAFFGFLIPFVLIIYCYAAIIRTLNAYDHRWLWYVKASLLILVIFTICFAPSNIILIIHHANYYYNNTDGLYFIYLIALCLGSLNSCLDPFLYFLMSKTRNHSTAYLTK

Target: protease-activated receptor-3 (human (endogenous in EA.hy926)) (UniProt O00254)
Experiment: co-IP; EA.hy926 cells, untreated or treated with 100 nM TFG or TFMG for 24 h, lysed in RIPA buffer; anti-PAR-3 antibody overnight at 4 °C, magnetic beads 4 h at 4 °C; western blot with anti-PAR-1 antibody

B1: protease-activated receptor-1 (receptor, UniProt P25116 42-425)
chain: SFLLRNPNDKYEPFWEDEEKNESGLTEYRLVSINKSSPLQKQLPAFISEDASGYLTSSWLTLFVPSVYTGVFVVSLPLNIMAIVVFILKMKVKKPAVVYMLHLATADVLFVSVLPFKISYYFSGSDWQFGSELCRFVTAAFYCNMYASILLMTVISIDRFLAVVYPMQSLSWRTLGRASFTCLAIWALAIAGVVPLLLKEQTIQVPGLNITTCHDVLNETLLEGYYAYYFSAFSAVFFFVPLIISTVCYVSIIRCLSSSAVANRSKKSRALFLSAAVFCIFIICFGPTNVLLIAHYSFLSHTSTTEAAYFAYLLCVCVSSISCCIDPLIYYYASSECQRYVYSILCCKESSDPSSYNSSGQLMASKMDTCSSNLNNSIYKKLLT
For B1, which binding is on record?
The binding was “binds”.
